The text below walks through data of article PMC7527512.

The subject of this data set is MBP-CaMYB48. As to the kind of experiment: EMSA. To be noted: 1- to 20-fold excess unlabeled probe decreased binding; LightShift Chemiluminescent EMSA Kit per manufacturer; temperature not stated; recombinant protein; protein details: N-terminal MBP (pMAL-c2X); label: 3' biotin (unlabeled as cold competitor). In general terms: A gel shift assay detects complexes by their altered migration in electrophoresis.

Construct, isoform or probe ends are uncertain for at least one entry.

Turning to “AATTGGAGGGTGTTAGGTGTATTATATTAAATTTGTAAAGTT (double strand) [AT3a promoter wild-type probe]”, the binding result was “binds”.
